Laboratory results: PubChem BioAssay AID2685 (National Center for Advancing Translational Sciences (NCATS), 2010)
This is one part of the list. These are further read-outs of the screen, such as a control signal, another cell line or another target. No call is given for them. The list favours compounds with an active or inconclusive main result. Words in brackets tell the shape of the fitted curve; partial curves, single points and poor fits give uncertain potencies.

Assay: qHTS Assay for Lipid Storage Modulators in Drosophila S3 Cells;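 on cell number change: cells counted by Cell Tracker Red CMTPX staining in the red channel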
Settings: BODIPY lipid droplet fluorescence, 18-24 h; for cell number change: measured here: cell count max response, cells fed with added oleic acid
Method in brief: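 Drosophila S3 cells got compounds at several concentrations plus oleic acid (400 uM solution). Laser-scanning cytometry with 488 nm excitation read lipid droplets at 500-530 nm and cells at 575-640 nm. Percent activity was relative to 20 uM Triacsin C.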

[1] = measured here: cell number channel AC50, cells fed with added oleic acid
[2] = measured here: lipid fluorescence (Fed channel) AC50, cells fed with added oleic acid

Row | Compound | cell number change [%] | AC50 [1] | AC50 [2]
1 | CCn1c(O)c(C=Nc2ccccc2)n(-c2ccccc2)c1=S | 46 | 7.31 µM [rising, full curve] | 
2 | CN(C(=O)CSc1nc(-c2ccccc2)c(-c2ccccc2)o1)C1CCS(=O)(=O)C1 (configuration not stated) | -2.2 |  | 
3 | CCC(CC)C(=O)NCCNC(=O)C(CC)CC | 4.52 |  | 
4 | Cc1ccc(C(C)(C)C)cc1S(=O)(=O)Nc1cccc(C(=O)N2CCN(c3ccccn3)CC2)c1 |  |  | 0.13 µM [falling, full curve, poor fit]
5 | O=C(NNc1nc(=O)c2cccnc2s1)c1ccccc1O | -57.5 | 7.31 µM [falling, partial curve] | 10.3 µM [falling, partial curve]
6 | c1ccc(-n2nnc(-c3cccnc3)n2)cc1 | -10.5 |  | 7.31 µM [falling, partial curve, poor fit]
7 | CCCc1nccn1S(=O)(=O)c1cc(OC)ccc1OC | 21 |  | 6.51 µM [falling, single point]
8 | CN1CCN(C(=O)c2ccc3ccccc3c2)CC1 | -15.2 |  | 0.0058 µM [falling, full curve, poor fit]
9 | Cc1ccc2c(CN3CCN(C(=O)c4ccco4)CC3)cc(=O)oc2c1C | 16.8 |  | 
10 | COc1ccccc1NC(=O)CSc1nnc(-c2ccncc2)n1CC1CCCO1 (configuration not stated) | -3.13 |  | 10.3 µM [rising, partial curve, poor fit]
11 | O=C(NC(=O)N1CCCCCC1)c1ccccc1 | -2.02 |  | 25.9 µM [rising, single point]
12 | O=C(O)CC(NC(=O)C12CC3CC(CC(C3)C1)C2)c1ccc(OC2CCCC2)cc1 (configuration not stated) | -12.9 |  | 3.26 µM [falling, full curve, poor fit]
13 | Cc1cc(C)nc(SCC(=O)Nc2ccc(S(=O)(=O)Nc3ncccn3)cc2)n1 | -11.7 |  | 3.26 µM [rising, partial curve]
14 | CCOC(=O)Cn1ccc(NC(=O)COc2ccc(F)cc2F)n1 | -13.9 |  | 23.1 µM [rising, single point]
15 | N/C(=N\OC(=O)CCCOc1ccccc1)c1ccncc1 | 24.4 | 0.0291 µM [rising, full curve, poor fit] | 0.146 µM [rising, full curve, poor fit]
16 | COc1cc(C2NC(=O)NC(c3ccccc3)=C2C(C)=O)c(Br)cc1OCC(N)=O (configuration not stated) | 33 | 0.0206 µM [rising, full curve, poor fit] | 29.1 µM [rising, single point]
17 | CCC(C)(C)NC(=O)CN(C(=O)C(=O)Nc1ccc2c(c1)OCCO2)N1CCOCC1 | -3.85 |  | 0.0206 µM [falling, full curve, poor fit]
18 | CC(=O)c1ccc2cccc3c2c1N=CN3C | -40.9 | 7.31 µM [falling, full curve, poor fit] | 32.6 µM [falling, single point]
19 | Cc1cccc(C(=O)Nc2nsc(N)n2)c1 | 27.7 |  | 18.4 µM [rising, single point]
20 | O=c1cc([O-])[n+]2c3n1CCCN3CCC2 | -64.4 | 0.92 µM [falling, full curve, poor fit] | 29.1 µM [falling, single point]

Row | Compound | cell number change [%] | AC50 [1] | AC50 [2]
21 | FC(F)(F)c1nc2ccccc2c2nc3ccccc3n12 | -1.61 |  | 5.8 µM [rising, partial curve, poor fit]
22 | CCOc1ccc(C(=O)NC(C(=O)N2CCC2)C(C)C)cc1 (configuration not stated) | 3.21 |  | 
23 | CC1CC(C)CN(C(=O)COC(=O)c2ccc3c(c2)C(=O)N(Cc2ccco2)C3=O)C1 (configuration not stated) | 0.648 |  | 
24 | Cc1cc(C)n(-c2nc3ccccc3nc2N2CCN(S(=O)(=O)c3cccc(C#N)c3)CC2)n1 | 42.9 | 29.1 µM [rising, single point] | 
25 | NNC(=O)c1ccccc1OCCOc1ccccc1 | 1.71 |  | 
26 | Cc1cc(=O)oc2cc(OC(C)C(=O)Nc3ccc(N4CCCCC4)cc3)ccc12 (configuration not stated) | 44.5 | 0.92 µM [rising, full curve] | 0.103 µM [rising, full curve, poor fit]
27 | CCC(C)(CC(=O)N(C)CCC#N)c1ccccc1 (configuration not stated) | 13.7 |  | 20.6 µM [falling, partial curve]
28 | CC(C)(C)c1ccccc1OCCCCN1CCCC1 | 16.3 |  | 0.082 µM [falling, full curve, poor fit]
29 | CCCc1cc(=O)n2[nH]c(C(F)(F)F)nc2n1 | 16.2 |  | 6.51 µM [falling, single point]
30 | CCC(=O)c1ccc(OCC(O)CN2CC(C)OC(C)C2)cc1 (configuration not stated) | -0.641 |  | 0.82 µM [falling, full curve, poor fit]
31 | CCOC(=O)CSC1=N/C(=C\c2cc(OC)c(OC)c(OC)c2)C(=O)N1C | 41.1 | 9.2 µM [rising, partial curve, poor fit] | 7.31 µM [rising, partial curve]
32 | O=[N+]([O-])c1ccc(Sc2cc[n+]([O-])c3ccccc23)c([N+](=O)[O-])c1 | 15.9 |  | 
33 | CN1C(=O)/C(=C/c2ccccc2F)Sc2ccc(C(=O)NCC3CCCO3)cc21 (configuration not stated) |  |  | 6.51 µM [falling, single point]
34 | CC1CCC(C(C)C)C(OCC(O)CN2CCN(Cc3ccccc3)CC2)C1 (configuration not stated) | -42.5 | 20.6 µM [falling, single point] | 18.4 µM [falling, partial curve]
35 | COc1ccc(NC(=O)C(NCC(C)C)c2ccccc2)cc1Cl (configuration not stated) |  |  | 5.17 µM [rising, single point]
36 | CS(=O)(=O)N1Cc2ccccc2CC1C(=O)Nc1ccccc1C(N)=O (configuration not stated) | 0.69 | 2.06 µM [rising, partial curve, poor fit] | 4.11 µM [rising, partial curve]
37 | CCCOc1ccc(/C=C2\SC(=S)N(CC3CCCO3)C2=O)cc1 (configuration not stated) | 39.4 | 29.1 µM [rising, single point] | 
38 | C=C(C)Cn1c(SCC(=O)O)nnc1-c1ccc(OC)cc1 | -32.9 | 0.116 µM [falling, full curve, poor fit] | 4.61 µM [falling, full curve, poor fit]
39 | O=C(Nc1ccccc1)c1ccc(NCC2CCCO2)c(S(=O)(=O)N2CCOCC2)c1 (configuration not stated) | -26 |  | 16.4 µM [falling, partial curve, poor fit]
40 | Cc1ccc(NC(=O)Cc2nnc(SCC(=O)c3ccc(Br)cc3)n2C)cc1Cl | 1.63 |  | 

Structures from the list above containing bromine, in the order listed:
Row | Compound | cell number change [%] | AC50 [1] | AC50 [2]
16 | COc1cc(C2NC(=O)NC(c3ccccc3)=C2C(C)=O)c(Br)cc1OCC(N)=O (configuration not stated) | 33 | 0.0206 µM [rising, full curve, poor fit] | 29.1 µM [rising, single point]
40 | Cc1ccc(NC(=O)Cc2nnc(SCC(=O)c3ccc(Br)cc3)n2C)cc1Cl | 1.63 |  | 

(further entries)

Row | Compound | cell number change [%] | AC50 [1] | AC50 [2]
41 | Cc1ccc(-c2nc(-c3ccccn3)sc2CC(=O)O)cc1 | 15.8 |  | 29.1 µM [rising, single point]
42 | CCOC(=O)c1nc(N/N=C/c2ccccc2)sc1Br | -28.6 |  | 20.6 µM [falling, single point]
43 | CC(C)c1ccc(C2/C(=C(/O)c3ccccc3)C(=O)C(=O)N2CCCN2CCOCC2)cc1 (configuration not stated) | 3.15 |  | 18.4 µM [falling, partial curve, poor fit]
44 | COc1ccc(N/N=C(C)/C(=N/O)C(=O)Nc2ccccc2)cc1 | 97.4 |  | 
45 | N#CC1=C(N)Oc2n[nH]c(-c3cccs3)c2C1c1ccncc1 (configuration not stated) |  | 6.51 µM [falling, single point] | 
46 | COc1cc(NC(=O)c2ccccc2Cl)c2ncccc2c1 | -34.6 | 7.31 µM [falling, partial curve] | 
47 | CCOC(=O)C1(Cc2cccc(F)c2)CCN(Cc2ccon2)CC1 | 0.868 |  | 0.731 µM [falling, full curve, poor fit]
48 | COCCn1ccc2c(OCC(=O)Nc3cccc(NC(C)=O)c3)cccc2c1=O |  | 0.13 µM [rising, full curve, poor fit] | 
49 | CC1CCN(C(=S)NCCc2ccccc2)CC1 | 57.4 | 18.4 µM [rising, single point] | 
50 | CCN(CC(=O)Nc1ccc(OC)cc1)CC(=O)Nc1sc2c(c1C(=O)OC)CCCC2 | -1.16 |  | 0.00411 µM [rising, full curve, poor fit]
51 | O=C(c1ncc[nH]1)c1ccco1 | -1.08 |  | 32.6 µM [falling, single point]
52 | CCS(=O)(=O)Nc1cccc(C2=NN(S(=O)(=O)c3ccc(F)cc3)C(c3cccs3)C2)c1 (configuration not stated) | 11.9 |  | 
53 | ONc1cccnc1-n1nc(C(F)(F)F)cc1C(F)(F)F | 2.39 |  | 29.1 µM [rising, single point]
54 | Cc1cnccc1CNC(=O)CC1C(=O)NCCN1CC(C)(C)C (configuration not stated) | -21.6 |  | 4.11 µM [falling, partial curve, poor fit]
55 | COCCCN(C(=S)Nc1c(C)cc(C)cc1C)C(C)c1ccncc1 (configuration not stated) | 37.1 | 32.6 µM [rising, single point] | 0.651 µM [falling, single point]
56 | Cc1ccc(OCc2cc(C(=O)NCCc3cccnc3)no2)cc1C | -5.32 |  | 0.13 µM [rising, full curve, poor fit]
57 | Cc1nn(-c2ccccc2)c(N)c1N=Nc1ccc(Cl)cc1 | -30.2 | 13 µM [falling, partial curve] | 16.4 µM [falling, single point]
58 | CCOC(=O)c1cc2[nH]c3ccccc3c2[n+](-c2ccc([N+](=O)[O-])cc2)c1C | 48.5 | 11.6 µM [rising, partial curve] | 20.6 µM [rising, partial curve]
59 | O=C1C=C(c2cccc(Cl)c2)C[C@@H](c2ccc3c(c2)OCO3)C1 | -8.04 |  | 
60 | Cc1ccc(C2(C)NC(=O)N(CC(=O)Nc3c(C)n(C)n(-c4ccccc4)c3=O)C2=O)cc1 (configuration not stated) |  | 0.13 µM [rising, full curve, poor fit] | 0.164 µM [rising, full curve, poor fit]
